Source: doi:10.1101/2021.05.19.444837
Results are given in words; binding and its absence hold for the method and conditions named. Binding calls can cover weak binding; strength is not graded here. Sequences can lack the tags named with a protein. For some assays here: Binding seen in cells or lysates may run through a third protein.

Columns and labels:
[1] = molecular target: T1, TUT3 (yeast two-hybrid fusion) (Trypanosoma brucei) (UniProt Q6B9Y8); test: two-hybrid
T1 sequence: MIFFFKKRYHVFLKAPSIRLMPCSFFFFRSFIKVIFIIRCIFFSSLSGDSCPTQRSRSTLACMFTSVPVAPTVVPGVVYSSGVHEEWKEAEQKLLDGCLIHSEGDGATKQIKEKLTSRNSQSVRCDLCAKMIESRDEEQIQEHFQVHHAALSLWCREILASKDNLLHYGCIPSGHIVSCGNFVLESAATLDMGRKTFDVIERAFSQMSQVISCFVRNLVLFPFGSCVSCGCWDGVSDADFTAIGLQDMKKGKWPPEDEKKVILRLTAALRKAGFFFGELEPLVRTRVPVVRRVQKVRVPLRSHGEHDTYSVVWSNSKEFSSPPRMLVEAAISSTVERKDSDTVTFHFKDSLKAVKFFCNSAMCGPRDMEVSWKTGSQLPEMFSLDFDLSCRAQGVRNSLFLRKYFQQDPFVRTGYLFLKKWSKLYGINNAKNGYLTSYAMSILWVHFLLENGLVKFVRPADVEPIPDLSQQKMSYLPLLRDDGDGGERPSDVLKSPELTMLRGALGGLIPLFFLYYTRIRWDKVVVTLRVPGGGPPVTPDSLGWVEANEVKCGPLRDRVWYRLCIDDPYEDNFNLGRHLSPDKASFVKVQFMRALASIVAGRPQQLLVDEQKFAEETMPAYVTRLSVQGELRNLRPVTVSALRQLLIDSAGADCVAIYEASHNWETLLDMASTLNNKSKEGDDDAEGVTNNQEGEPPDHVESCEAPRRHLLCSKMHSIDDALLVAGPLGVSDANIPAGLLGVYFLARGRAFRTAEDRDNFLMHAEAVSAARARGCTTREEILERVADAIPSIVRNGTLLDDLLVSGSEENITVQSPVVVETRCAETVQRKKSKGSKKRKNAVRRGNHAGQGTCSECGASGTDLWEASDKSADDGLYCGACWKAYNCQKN

[2] = molecular target: T2, TUT3-myc (Trypanosoma brucei) (UniProt Q6B9Y8); test: co-IP
T2 sequence: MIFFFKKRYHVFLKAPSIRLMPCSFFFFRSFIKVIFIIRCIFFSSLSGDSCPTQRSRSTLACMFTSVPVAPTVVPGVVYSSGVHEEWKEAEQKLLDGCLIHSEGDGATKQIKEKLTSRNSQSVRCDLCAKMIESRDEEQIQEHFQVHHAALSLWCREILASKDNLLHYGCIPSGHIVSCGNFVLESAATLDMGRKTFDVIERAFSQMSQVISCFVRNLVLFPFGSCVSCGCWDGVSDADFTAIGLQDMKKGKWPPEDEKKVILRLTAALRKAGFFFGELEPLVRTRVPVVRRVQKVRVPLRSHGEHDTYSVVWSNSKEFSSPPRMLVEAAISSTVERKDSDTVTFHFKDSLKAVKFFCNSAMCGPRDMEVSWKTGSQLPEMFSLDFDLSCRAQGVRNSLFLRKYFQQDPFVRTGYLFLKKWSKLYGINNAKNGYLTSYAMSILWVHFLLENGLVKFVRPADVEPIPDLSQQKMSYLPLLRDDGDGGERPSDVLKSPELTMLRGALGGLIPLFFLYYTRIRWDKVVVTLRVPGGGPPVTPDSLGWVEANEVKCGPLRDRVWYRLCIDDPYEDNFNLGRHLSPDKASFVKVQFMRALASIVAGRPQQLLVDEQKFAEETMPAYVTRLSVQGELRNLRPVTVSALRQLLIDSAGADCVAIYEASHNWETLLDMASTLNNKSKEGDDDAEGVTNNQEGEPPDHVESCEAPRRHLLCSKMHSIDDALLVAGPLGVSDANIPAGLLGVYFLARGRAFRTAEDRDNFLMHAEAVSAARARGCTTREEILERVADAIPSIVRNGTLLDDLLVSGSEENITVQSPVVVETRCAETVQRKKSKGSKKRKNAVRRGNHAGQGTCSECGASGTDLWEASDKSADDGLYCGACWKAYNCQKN

[3] = molecular target: 4EIP (yeast two-hybrid fusion) (Trypanosoma brucei); test: two-hybrid
[4] = molecular target: 4EIP-V5 (Trypanosoma brucei); test: co-IP

4EIP (yeast two-hybrid fusion) (Trypanosoma brucei)
binding [1]: binds

4EIP-V5 (Trypanosoma brucei)
binding [2]: binds

T. brucei homolog of Dis3L2 (yeast two-hybrid fusion) (Trypanosoma brucei) (enzyme)
binding [1]: no binding

B1: TUT3 (yeast two-hybrid fusion) (enzyme, UniProt Q6B9Y8 1-889)
chain: MIFFFKKRYHVFLKAPSIRLMPCSFFFFRSFIKVIFIIRCIFFSSLSGDSCPTQRSRSTLACMFTSVPVAPTVVPGVVYSSGVHEEWKEAEQKLLDGCLIHSEGDGATKQIKEKLTSRNSQSVRCDLCAKMIESRDEEQIQEHFQVHHAALSLWCREILASKDNLLHYGCIPSGHIVSCGNFVLESAATLDMGRKTFDVIERAFSQMSQVISCFVRNLVLFPFGSCVSCGCWDGVSDADFTAIGLQDMKKGKWPPEDEKKVILRLTAALRKAGFFFGELEPLVRTRVPVVRRVQKVRVPLRSHGEHDTYSVVWSNSKEFSSPPRMLVEAAISSTVERKDSDTVTFHFKDSLKAVKFFCNSAMCGPRDMEVSWKTGSQLPEMFSLDFDLSCRAQGVRNSLFLRKYFQQDPFVRTGYLFLKKWSKLYGINNAKNGYLTSYAMSILWVHFLLENGLVKFVRPADVEPIPDLSQQKMSYLPLLRDDGDGGERPSDVLKSPELTMLRGALGGLIPLFFLYYTRIRWDKVVVTLRVPGGGPPVTPDSLGWVEANEVKCGPLRDRVWYRLCIDDPYEDNFNLGRHLSPDKASFVKVQFMRALASIVAGRPQQLLVDEQKFAEETMPAYVTRLSVQGELRNLRPVTVSALRQLLIDSAGADCVAIYEASHNWETLLDMASTLNNKSKEGDDDAEGVTNNQEGEPPDHVESCEAPRRHLLCSKMHSIDDALLVAGPLGVSDANIPAGLLGVYFLARGRAFRTAEDRDNFLMHAEAVSAARARGCTTREEILERVADAIPSIVRNGTLLDDLLVSGSEENITVQSPVVVETRCAETVQRKKSKGSKKRKNAVRRGNHAGQGTCSECGASGTDLWEASDKSADDGLYCGACWKAYNCQKN
binding [3]: binds

B2: TUT3-myc (enzyme, UniProt Q6B9Y8 1-889)
chain: MIFFFKKRYHVFLKAPSIRLMPCSFFFFRSFIKVIFIIRCIFFSSLSGDSCPTQRSRSTLACMFTSVPVAPTVVPGVVYSSGVHEEWKEAEQKLLDGCLIHSEGDGATKQIKEKLTSRNSQSVRCDLCAKMIESRDEEQIQEHFQVHHAALSLWCREILASKDNLLHYGCIPSGHIVSCGNFVLESAATLDMGRKTFDVIERAFSQMSQVISCFVRNLVLFPFGSCVSCGCWDGVSDADFTAIGLQDMKKGKWPPEDEKKVILRLTAALRKAGFFFGELEPLVRTRVPVVRRVQKVRVPLRSHGEHDTYSVVWSNSKEFSSPPRMLVEAAISSTVERKDSDTVTFHFKDSLKAVKFFCNSAMCGPRDMEVSWKTGSQLPEMFSLDFDLSCRAQGVRNSLFLRKYFQQDPFVRTGYLFLKKWSKLYGINNAKNGYLTSYAMSILWVHFLLENGLVKFVRPADVEPIPDLSQQKMSYLPLLRDDGDGGERPSDVLKSPELTMLRGALGGLIPLFFLYYTRIRWDKVVVTLRVPGGGPPVTPDSLGWVEANEVKCGPLRDRVWYRLCIDDPYEDNFNLGRHLSPDKASFVKVQFMRALASIVAGRPQQLLVDEQKFAEETMPAYVTRLSVQGELRNLRPVTVSALRQLLIDSAGADCVAIYEASHNWETLLDMASTLNNKSKEGDDDAEGVTNNQEGEPPDHVESCEAPRRHLLCSKMHSIDDALLVAGPLGVSDANIPAGLLGVYFLARGRAFRTAEDRDNFLMHAEAVSAARARGCTTREEILERVADAIPSIVRNGTLLDDLLVSGSEENITVQSPVVVETRCAETVQRKKSKGSKKRKNAVRRGNHAGQGTCSECGASGTDLWEASDKSADDGLYCGACWKAYNCQKN
binding [4]: binds
